Measured values as given in patent US5459236A, “Vasoactive vasotocin derivatives” (Ferring AB, priority 1990, dated 1995).
At least one peptide structure holds a part that was inferred or is arguable (an end, a ring closure or a residue).

How the values were obtained:
[1] = test system: anaesthetised Sprague Dawley rats, previously treated with dibenamine; assay: Blood pressure (pressor) test, 4-point test against standard AVP; type: in vivo; details: for BLOOD PRESSURE BP I.P (measure of duration of effect), index of persistence: dimensionless, effect duration in relation to the standard AVP, intravenous; for BLOOD PRESSURE BP potency: maximal blood pressure increase after intravenous injection, 4-point test vs AVP, anaesthetised rats; for BP/AD (measure of specificity): ratio of potency blood pressure/potency antidiuresis
Text: (§1) Vasotocin derivatives according to the invention have been tested for potency of both blood pressure and antidiuretic activity in a so-called 4-point test, i.e. the activity of the test substances has been related to a standard preparation (AVP=argininevasopressin), and the effects of two dose levels for each substance have been analysed. In addition, three pressor-specific VT derivatives according to our previous application SE 8703855-0 have been tested for a comparison, namely 1-Hmp-2-Phe-S-Orn-VT (compound 2 in Table 1), 1-Hmp-2-Phe-S-Dab-VT (compound 3 in Table 1), and 1-Hmp-2-Phe-S-Dab(Ala)-VT (compound 5 in Table 1).
Blood pressure tests were carried out on anaesthetised Sprague Dawley rats (about 250 g), previously treated with dibenamine (Dekanski, J., 1952. Br. J. Pharmacol. 7, 567). Maximal blood pressure increase after intravenous injections of peptide was used as a measure of the effect, expressed as intensity.
In addition to potency determination based-on effect intensity, a measure of the length of the effect has been stated (index of persistence (I.P.), Pliska, V., 1966. Arzheim. Forech. 16, 886). This dimensionless factor is a measure of the effect duration of the respective analog in relation to the standard AVP.
(§2) In these two tests, a comparison was made between the effects of the respective derivative and the effect of a standard preparation, AVP, and potency was determined with the aid of a 4-point test and is indicated in international units per micromole (IU/μmole) (Sturmer, E., in Handbook of Expermimental Pharmacology, 1966, Vol 23, pp 130-189).
The specificity in respect of blood pressure is indicated by the ratio of potency blood pressure/potency antidiuresis (BP/AD).

[2] = test system: anaesthetised water-loaded Sprague Dawley rats; assay: Antidiuretic potency test, 4-point test against standard AVP; type: in vivo; details: maximal increase of urine conductivity after intravenous injection, 4-point test vs AVP
Text: as §1
Antidiuretic potency was determined with the aid of anaesthetised water-loaded Sprague Dawley rats (200 g) (Larsson, L. E., Lindeberg, G., Melin, P. and Pliska, V., 1978, J. Mad. Chem. 21, 353). Maximal increase of urine conductivity after intravenous injections was used as effect parameter.
as §2

Row | SMILES | BLOOD PRESSURE BP I.P (measure of duration of effect), index of persistence [1] | BLOOD PRESSURE BP potency [1] | BP/AD (measure of specificity) [1] | ANTIDIURESIS AD potency [2]
1 | CC[C@H](C)[C@@H]1NC(=O)[C@H](Cc2ccccc2)NC(=O)C(O)CSSC[C@@H](C(=O)N2CCC[C@H]2C(=O)N[C@@H](CCN)C(=O)NCC(N)=O)NC(=O)[C@H](CC(N)=O)NC(=O)[C@H](CCC(N)=O)NC1=O (some centres unmarked) [1-Hmp-2-Phe-8-Dab-VT, reference compound] | 2.7 ± 0.6 | 657 ± 32 IU/μmole | 37 | 18 ± 2.1 IU/μmole
2 | CC[C@H](C)[C@@H]1NC(=O)[C@H](Cc2ccccc2)NC(=O)C(O)CSSC[C@@H](C(=O)N2CCC[C@H]2C(=O)N[C@@H](CCCN)C(=O)NCC(N)=O)NC(=O)[C@H](CC(N)=O)NC(=O)[C@H](CCC(N)=O)NC1=O (some centres unmarked) [1-Hmp-2-Phe-8-Orn-VT, reference compound] | 3.1 ± 1.3 | 421 ± 41 IU/μmole | 45 | 9.4 ± 1.1 IU/μmole
